Drawing on PMC10713531, this text covers binding for two substances.

Amino acid sequences for entries named in this document (tags omitted). A change or cut given only in a name is not applied to a line headed by its entry.
UniProt O70511: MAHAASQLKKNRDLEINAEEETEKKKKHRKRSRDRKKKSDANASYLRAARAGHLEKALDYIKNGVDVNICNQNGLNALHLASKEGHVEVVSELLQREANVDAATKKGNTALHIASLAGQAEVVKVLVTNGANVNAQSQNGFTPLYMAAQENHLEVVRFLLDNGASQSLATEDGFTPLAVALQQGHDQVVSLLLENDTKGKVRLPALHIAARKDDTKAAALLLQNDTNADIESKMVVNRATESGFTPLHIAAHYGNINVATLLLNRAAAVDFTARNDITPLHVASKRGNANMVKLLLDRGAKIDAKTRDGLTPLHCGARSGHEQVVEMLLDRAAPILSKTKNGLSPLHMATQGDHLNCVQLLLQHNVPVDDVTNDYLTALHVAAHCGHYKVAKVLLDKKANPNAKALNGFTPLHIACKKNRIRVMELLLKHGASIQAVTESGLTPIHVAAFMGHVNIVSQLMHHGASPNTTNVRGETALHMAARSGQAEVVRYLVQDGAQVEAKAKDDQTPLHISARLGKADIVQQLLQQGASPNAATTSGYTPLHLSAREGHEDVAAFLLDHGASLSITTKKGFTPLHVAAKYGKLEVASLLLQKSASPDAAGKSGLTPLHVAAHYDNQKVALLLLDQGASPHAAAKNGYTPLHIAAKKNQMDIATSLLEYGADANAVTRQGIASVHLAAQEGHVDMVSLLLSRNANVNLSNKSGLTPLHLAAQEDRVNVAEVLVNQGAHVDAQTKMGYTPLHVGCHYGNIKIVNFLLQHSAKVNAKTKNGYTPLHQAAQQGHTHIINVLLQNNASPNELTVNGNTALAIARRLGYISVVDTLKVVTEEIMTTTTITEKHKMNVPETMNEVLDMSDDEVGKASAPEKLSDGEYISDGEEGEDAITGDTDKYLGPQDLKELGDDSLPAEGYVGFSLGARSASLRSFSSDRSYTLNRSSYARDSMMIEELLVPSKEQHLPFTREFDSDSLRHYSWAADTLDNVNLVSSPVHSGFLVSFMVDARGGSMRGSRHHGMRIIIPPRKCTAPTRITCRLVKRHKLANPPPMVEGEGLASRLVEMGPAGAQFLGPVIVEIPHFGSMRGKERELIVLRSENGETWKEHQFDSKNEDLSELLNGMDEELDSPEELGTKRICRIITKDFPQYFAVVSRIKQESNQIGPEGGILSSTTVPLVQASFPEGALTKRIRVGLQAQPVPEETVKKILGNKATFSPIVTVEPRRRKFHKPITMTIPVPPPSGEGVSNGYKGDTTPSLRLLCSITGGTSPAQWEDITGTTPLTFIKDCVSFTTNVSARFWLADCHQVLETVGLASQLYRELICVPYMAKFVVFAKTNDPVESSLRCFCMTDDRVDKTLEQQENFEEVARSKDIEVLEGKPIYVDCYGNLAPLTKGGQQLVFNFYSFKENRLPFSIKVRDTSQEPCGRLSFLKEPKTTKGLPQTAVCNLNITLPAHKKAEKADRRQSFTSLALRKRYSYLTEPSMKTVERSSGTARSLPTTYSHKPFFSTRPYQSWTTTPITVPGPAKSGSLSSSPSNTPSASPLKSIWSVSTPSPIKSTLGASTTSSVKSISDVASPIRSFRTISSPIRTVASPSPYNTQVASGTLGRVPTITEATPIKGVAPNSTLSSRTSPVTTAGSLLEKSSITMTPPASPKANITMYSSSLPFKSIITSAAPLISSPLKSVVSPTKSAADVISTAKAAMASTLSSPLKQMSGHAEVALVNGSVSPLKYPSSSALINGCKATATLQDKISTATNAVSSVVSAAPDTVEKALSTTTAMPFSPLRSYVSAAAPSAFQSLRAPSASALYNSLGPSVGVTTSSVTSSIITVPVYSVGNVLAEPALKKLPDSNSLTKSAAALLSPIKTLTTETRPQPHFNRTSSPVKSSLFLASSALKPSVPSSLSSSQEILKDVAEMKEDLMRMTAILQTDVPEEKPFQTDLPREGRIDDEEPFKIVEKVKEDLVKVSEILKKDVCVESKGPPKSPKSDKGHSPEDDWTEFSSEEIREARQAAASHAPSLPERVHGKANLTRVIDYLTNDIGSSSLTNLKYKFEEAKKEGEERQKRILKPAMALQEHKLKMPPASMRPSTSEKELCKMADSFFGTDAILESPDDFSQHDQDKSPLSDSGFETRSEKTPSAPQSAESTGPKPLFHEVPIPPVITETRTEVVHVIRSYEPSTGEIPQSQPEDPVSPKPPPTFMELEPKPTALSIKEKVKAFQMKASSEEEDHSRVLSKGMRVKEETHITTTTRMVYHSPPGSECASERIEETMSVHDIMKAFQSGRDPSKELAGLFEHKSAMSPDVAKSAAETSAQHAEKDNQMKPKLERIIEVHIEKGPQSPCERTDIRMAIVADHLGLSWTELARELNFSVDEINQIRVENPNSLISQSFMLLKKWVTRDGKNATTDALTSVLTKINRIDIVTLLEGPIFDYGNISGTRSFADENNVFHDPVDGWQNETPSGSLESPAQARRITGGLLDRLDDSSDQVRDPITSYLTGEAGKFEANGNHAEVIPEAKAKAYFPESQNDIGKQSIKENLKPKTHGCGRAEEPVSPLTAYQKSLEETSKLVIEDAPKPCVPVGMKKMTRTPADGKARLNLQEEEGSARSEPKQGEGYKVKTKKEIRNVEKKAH
UniProt Q14160: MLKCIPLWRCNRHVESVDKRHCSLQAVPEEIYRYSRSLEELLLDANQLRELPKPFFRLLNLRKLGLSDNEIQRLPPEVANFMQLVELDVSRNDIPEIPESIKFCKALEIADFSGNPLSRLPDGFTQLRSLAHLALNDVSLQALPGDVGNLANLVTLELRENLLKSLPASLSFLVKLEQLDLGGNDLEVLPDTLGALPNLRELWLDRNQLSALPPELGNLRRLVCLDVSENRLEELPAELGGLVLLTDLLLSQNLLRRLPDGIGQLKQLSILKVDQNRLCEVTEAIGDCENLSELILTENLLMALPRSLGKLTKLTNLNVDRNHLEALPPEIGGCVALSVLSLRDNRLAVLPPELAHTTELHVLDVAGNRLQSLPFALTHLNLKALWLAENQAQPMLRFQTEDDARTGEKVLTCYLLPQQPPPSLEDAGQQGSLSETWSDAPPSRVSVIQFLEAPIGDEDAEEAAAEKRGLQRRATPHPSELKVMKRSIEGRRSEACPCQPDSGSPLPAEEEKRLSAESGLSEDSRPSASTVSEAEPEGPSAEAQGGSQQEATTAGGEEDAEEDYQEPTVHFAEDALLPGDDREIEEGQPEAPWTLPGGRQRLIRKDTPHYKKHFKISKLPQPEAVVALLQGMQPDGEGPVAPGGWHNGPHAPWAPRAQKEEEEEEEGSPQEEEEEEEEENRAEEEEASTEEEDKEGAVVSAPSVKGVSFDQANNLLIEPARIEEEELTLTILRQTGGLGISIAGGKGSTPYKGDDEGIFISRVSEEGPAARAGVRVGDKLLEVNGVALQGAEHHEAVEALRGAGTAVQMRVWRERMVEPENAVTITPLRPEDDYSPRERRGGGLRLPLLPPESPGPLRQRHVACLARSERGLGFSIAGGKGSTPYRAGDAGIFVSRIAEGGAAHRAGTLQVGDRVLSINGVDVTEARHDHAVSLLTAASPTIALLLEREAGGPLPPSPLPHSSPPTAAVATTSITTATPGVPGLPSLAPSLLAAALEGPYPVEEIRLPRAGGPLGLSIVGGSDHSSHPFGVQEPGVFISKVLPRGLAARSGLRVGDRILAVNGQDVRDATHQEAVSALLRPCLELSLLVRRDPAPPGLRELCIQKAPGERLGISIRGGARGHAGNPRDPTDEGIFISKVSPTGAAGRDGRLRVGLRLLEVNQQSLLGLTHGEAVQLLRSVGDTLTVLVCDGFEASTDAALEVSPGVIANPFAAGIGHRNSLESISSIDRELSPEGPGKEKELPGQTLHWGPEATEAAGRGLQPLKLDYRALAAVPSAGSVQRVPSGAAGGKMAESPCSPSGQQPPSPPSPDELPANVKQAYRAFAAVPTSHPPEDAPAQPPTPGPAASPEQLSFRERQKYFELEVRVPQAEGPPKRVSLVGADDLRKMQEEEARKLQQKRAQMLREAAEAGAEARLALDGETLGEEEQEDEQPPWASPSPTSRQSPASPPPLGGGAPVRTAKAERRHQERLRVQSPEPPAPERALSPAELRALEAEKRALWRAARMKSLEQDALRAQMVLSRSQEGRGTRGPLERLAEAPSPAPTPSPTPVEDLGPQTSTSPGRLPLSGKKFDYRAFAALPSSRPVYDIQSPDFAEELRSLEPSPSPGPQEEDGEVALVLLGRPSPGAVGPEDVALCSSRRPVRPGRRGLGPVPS

The target in test [1] is AnkG270-EGFP (GFP-tagged AnkG) (UniProt O70511). Kind of test: co-IP; HEK293T cells co-transfected with AnkG270-EGFP and Scrib-Flag or dTomato-fused truncated Scrib, lysed after 48 h; AnkG270-EGFP immunoprecipitated by GFP antibody, blotted for Flag or mCherry.
Test [2] has as its target Scrib-Flag (flag-tagged SCRIB) (human) (UniProt Q14160). Kind of test: co-IP; HEK293T cells co-transfected with Scrib-Flag and AnkG270-EGFP or pEGFPN1, lysed after 48 h; immunoprecipitated by Flag antibody, blotted for GFP.

No constants are given. Whether binding was seen depends on the method and setting. In cells and extracts the contact can be indirect. Some binding calls cover weakened binding; strength is not graded here.

For “Scrib-Flag (flag-tagged SCRIB) (from UniProt Q14160 1-1655)”, in test [1], the binding entry was “binds”. Turning to “AnkG270-EGFP (GFP-tagged AnkG) (from UniProt O70511-1 1-2622)”, the binding entry in test [2] is on record as “binds”.
